Our source for the binding signal values is PMC7862700.

The list shows a part of the results. Construct or isoform of the protein are uncertain.

This assay concerns the target T1, ETV4 (UniProt P43268).
T1 sequence: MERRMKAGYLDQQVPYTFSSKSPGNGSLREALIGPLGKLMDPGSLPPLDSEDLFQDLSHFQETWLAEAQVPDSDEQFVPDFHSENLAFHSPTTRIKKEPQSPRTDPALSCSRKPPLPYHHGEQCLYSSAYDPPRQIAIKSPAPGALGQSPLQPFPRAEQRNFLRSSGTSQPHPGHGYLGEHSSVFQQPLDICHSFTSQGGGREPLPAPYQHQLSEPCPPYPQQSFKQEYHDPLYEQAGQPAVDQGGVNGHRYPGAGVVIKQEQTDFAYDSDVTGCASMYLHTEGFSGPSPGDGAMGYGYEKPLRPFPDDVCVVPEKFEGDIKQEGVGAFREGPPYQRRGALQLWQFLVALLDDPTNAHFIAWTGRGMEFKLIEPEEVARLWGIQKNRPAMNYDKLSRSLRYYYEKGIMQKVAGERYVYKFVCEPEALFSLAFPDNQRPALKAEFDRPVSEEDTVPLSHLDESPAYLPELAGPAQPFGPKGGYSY
The assay can be described thus: DAPPL (digital affinity profiling via proximity ligation, sequencing). The following applies: 10 mM Tris-HCl pH 7.5, 50 mM NaCl, 1 mM DTT, 4% glycerol, room temperature, 30 min; GST-TFs on glutathione beads, 16-mer random dsDNA library, 0.1% …; high values mean tight binding; double strand, one strand shown; scale: fold enrichment (6-mer frequency, TF over GST control).
Regarding CGATTA, the binding signal is 1.1. The same measure for AACTAA: 1.37; for ACGGCC: 1.09. The same measure for CGCCCG: 1.13. Under ACCAAT stands 1.33; under CCCACA, 1.2. ACCACT showed a binding signal of 1.31. The same measure for TGTTCA: 1.15; for GGTTTA: 1.05; for TAATTT: 1.31.

Regarding TGCTTC, the binding signal worked out at 2.34. Under GAATTT stands 1.22; under GATCTC, 1.4.

For TATAAC, the binding signal worked out at 1.27.

Sequence GGCTTC gave a binding signal of 1.69.

As for CTAACG, the binding signal was 1.25. The same measure for ACTTTG: 1.22. Take TCACGC: the binding signal was 1.28. In turn, CGATTG yielded a binding signal of 1.19. Under ACGTTA stands 1.12; under TGGATG, 1.36.

Sequence AATCGC yielded a binding signal of 1.07.

With TACTAC, the binding signal was found to be 1.21.

TCCTCC registered a binding signal of 1.57. In turn, CTAAAG yielded a binding signal of 1.33. Under TAACAC stands 1.18; under ACCGGA, 3.61; under TTGAAT, 1.14. Turning to CTTTCC, the binding signal was determined as 1.92. Under AAAAGG stands 1.06; under GCCTCG, 1.35. Under CACGCC stands 1.17; under GCCTAT, 1.32; under GGAATT, 1.12. The same measure for CATCCC: 1.21. For CCACTT, the binding signal was 2.01. The same measure for ATGTGT: 1.12. ACAGAT: the binding signal was determined as 1.02. Under CGGATA stands 1.25.
